In patent publication US8268874B2, “Anti-cancer compounds, synthesis thereof, and methods of using same” (University of Notre Dame du Lac, priority 2008, dated 2012):

Key:
[1] = system: human breast cancer cell line MCF-7; assay: NCI anti-cancer drug screen, growth inhibition of MCF-7 cells; assay type: cell-based; conditions: MCF7, Table 1
Excerpt: (§1) For additional details pertaining to the assay, see, for example, Shoemaker, R. H., The NCI60 Human Tumour Cell line Anticancer Drug Screen, Nature Reviews, 6: 813-823, 2006, the disclosure of which is hereby incorporated by reference in its entirety.
(§2) Briefly, the cell lines comprising the National Cancer Institute Anti-cancer Drug Screen panel were obtained and processed as described previously. After an initial acquisition, in vitro expansion was followed by cryopreservation of a large number of master stock samples, for serial rethawing at 20-passage intervals. The parental cells included the small cell lung carcinoma cell line UMCC-1, the human leukemia cell line HL-60, estrogen receptor-positive MCF7 and ZR-75B human breast carcinoma cells, and estrogen receptor-negative MDA-MB231 human breast carcinoma cells. The parental cells were grown in monolayers or in suspension in Eagle's minimum essential medium containing 10% fetal bovine serum, 2 mM L-glutamine, 100 units/ml penicillin, and 100 μg/ml streptomycin in 5% CO2 at 37° C.
(§3) The current version of COMPARE is configured to calculate pairwise correlations with the log10 of one of the specific National Cancer Institute cell line activity parameters GI50, TGI, or LC50. […]

[2] = system: human leukemia cell line HL-60; assay: In vitro anti-cancer activity against HL-60 cells; assay type: cell-based; conditions: Table 1
Excerpt: as §1, §2, §3

COc1cc2c(c(OC)c1OC)-c1ccc(OC)c(=O)cc1[C@@H](NC(C)=O)CC2 [colchicine, reference compound]
IC50 [1]: 0.004 µM | IC50 [2]: 0.12 µM
